According to patent publication US5747545A, “Method of preventing NMDA receptor complex-mediated Neuronal damage” (priority 1995, dated 1998):
At least one compound was matched to its structure with a doubt left.

Tested on: NMDA receptor (rat cortical neurons in culture)
Assay: Digital fura-2 imaging of NMDA-evoked intracellular [Ca2+] in cultured cortical neurons
Format: cell-based, rat (Sprague-Dawley)
Conditions: 50 μM NMDA; Examples 1-2; NTG 100 μM in Example 2
Procedure: The concentration of intracellular free Ca^2+ ([Ca^2+ ]i) is measured in neonatal cortical neurons by digital imaging microscopy with the Ca^2+ sensitive fluorescent dye fura 2, as follows. The same cortical neuronal cultures as described above are used. During Ca^2+ measurements, unless otherwise stated the fluid bathing the neurons consists of Hanks' balanced salts: 137.6 mM NaCl, 1 mM NaHCO3, 0.34 mM Na2 HPO4, 0.44 mM KH2 PO4, 5.36 mM KCl, 1.25 mM CaCl2, 0.5 mM MgSO4, 0.5 mM MgCl2, 5 mM Hepes NaOH, 22.2 mM glucose, and sometimes with phenol red indicator (0.001% v/v); pH 7.2. NMDA (in the absence Mg^++), glutamate, and other substances are usually applied to the neurons by pressure ejection after dilution in this bath solution. Neuronal [Ca^2+ ]i is analyzed with fura 2-acetoxy-methyl ester (AM) as described [Grynkiewicz, et al., J. Biol. Chem. 260:3440 (1985); Williams et al., Nature 318:558 (1985); Connor et al., J. Neurosci. […] The dye is loaded, trapped, and deesterified within 1 hour, as determined by stable fluorescence ratios and the effect of the Ca^2+ ionophore ionomycin on [Ca^2+ ]i is measured. […] The [Ca^2+ ]i is calculated from ratio images that are obtained by measuring the fluorescence at 500 nm that is excited by 350 and 380 nm light with a DAGE MTI 66 SIT or QUANTEX QX-100 Intensified CCD camera mounted on a Zeiss Axiovert 35 microscope. […]

Structure (SMILES): CN[C@H](CC(=O)O)C(=O)O [NMDA, N-methyl-D-aspartate]
- Effect on NMDA-evoked [Ca2+]i response: induces an increase in [Ca^++ ]i
